Results are given in words; binding and its absence hold for the method and conditions named. Binding seen in cells or lysates may run through a third protein. A yes stands for co-enrichment or nearness to the bait. Other partners may have been found. For some assays here: Sequences can lack the tags named with a protein.
What was measured:
HA-tagged p65 = HA-tagged p65 (UniProt Q04206); assay: affinity purification with mass spectrometry; 293T cells transfected with Flag-tagged RNF25 or HA-tagged p65, 48 h; lysed in IP buffer; Flag- or HA-conjugated agarose beads; elution with 2% SDS; LC-MS
Flag-tagged RNF25 = biological target: T1, Flag-tagged RNF25 (UniProt Q96BH1); assay: as above
T1 sequence: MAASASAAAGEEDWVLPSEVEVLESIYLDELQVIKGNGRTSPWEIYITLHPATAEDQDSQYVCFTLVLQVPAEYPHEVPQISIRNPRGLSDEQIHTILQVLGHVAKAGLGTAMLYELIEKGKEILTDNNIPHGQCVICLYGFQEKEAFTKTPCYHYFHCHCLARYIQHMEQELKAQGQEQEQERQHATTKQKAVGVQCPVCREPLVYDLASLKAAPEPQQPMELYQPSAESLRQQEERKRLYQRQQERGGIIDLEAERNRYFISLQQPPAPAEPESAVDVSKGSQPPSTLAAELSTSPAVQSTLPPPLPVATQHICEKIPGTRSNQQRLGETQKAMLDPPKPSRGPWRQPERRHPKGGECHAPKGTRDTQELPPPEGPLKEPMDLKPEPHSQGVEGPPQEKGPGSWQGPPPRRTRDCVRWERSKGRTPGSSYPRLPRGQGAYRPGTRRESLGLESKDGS

Chains of the proteins cited; added tags and fusions are not shown.
UniProt Q04206: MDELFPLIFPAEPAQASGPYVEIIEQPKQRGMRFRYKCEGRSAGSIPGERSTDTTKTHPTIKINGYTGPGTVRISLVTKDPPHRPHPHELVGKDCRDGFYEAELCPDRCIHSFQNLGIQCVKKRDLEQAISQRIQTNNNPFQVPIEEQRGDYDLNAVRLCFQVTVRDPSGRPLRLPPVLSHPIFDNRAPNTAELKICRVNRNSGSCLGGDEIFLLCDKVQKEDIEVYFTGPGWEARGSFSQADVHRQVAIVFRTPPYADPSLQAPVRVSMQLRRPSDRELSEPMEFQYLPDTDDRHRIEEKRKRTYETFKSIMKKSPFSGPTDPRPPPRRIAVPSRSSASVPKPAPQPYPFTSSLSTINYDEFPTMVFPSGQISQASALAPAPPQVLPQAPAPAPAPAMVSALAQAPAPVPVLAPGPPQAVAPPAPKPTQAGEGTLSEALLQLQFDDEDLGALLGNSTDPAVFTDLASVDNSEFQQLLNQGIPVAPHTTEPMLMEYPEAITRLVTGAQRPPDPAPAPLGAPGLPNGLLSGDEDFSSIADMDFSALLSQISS

binding (HA-tagged p65): binds
binding (Flag-tagged RNF25): binds
B1: TRIP4 (protein, UniProt Q15650 1-581)
chain: MAVAGAVSGEPLVHWCTQQLRKTFGLDVSEEIIQYVLSIESAEEIREYVTDLLQGNEGKKGQFIEELITKWQKNDQELISDPLQQCFKKDEILDGQKSGDHLKRGRKKGRNRQEVPAFTEPDTTAEVKTPFDLAKAQENSNSVKKKTKFVNLYTREGQDRLAVLLPGRHPCDCLGQKHKLINNCLICGRIVCEQEGSGPCLFCGTLVCTHEEQDILQRDSNKSQKLLKKLMSGVENSGKVDISTKDLLPHQELRIKSGLEKAIKHKDKLLEFDRTSIRRTQVIDDESDYFASDSNQWLSKLERETLQKREEELRELRHASRLSKKVTIDFAGRKILEEENSLAEYHSRLDETIQAIANGTLNQPLTKLDRSSEEPLGVLVNPNMYQSPPQWVDHTGAASQKKAFRSSGFGLEFNSFQHQLRIQDQEFQEGFDGGWCLSVHQPWASLLVRGIKRVEGRSWYTPHRGRLWIAATAKKPSPQEVSELQATYRLLRGKDVEFPNDYPSGCLLGCVDLIDCLSQKQFKEQFPDISQESDSPFVFICKNPQEMVVKFPIKGNPKIWKLDSKIHQGAKKGLMKQNKAV

Reference: article PMC12320230, “BAY11-7082 Targets RNF25 to Reverse TRIP4 Ubiquitination-dependent NF-κB Activation and Apoptosis Resistance in Renal Cell Carcinoma” (International Journal of Biological Sciences, 2025)
